Measured values taken from article PMC7390632.
No constants are given. Whether binding was seen depends on the method and setting. Some results given as binding are weak or reduced against the parent protein; the word gives no strength. Sequences can lack the tags named with a protein.

Target: T1, non-SUMOylated HA–KIF4A WT (SUMOylation mix without SUMO2) (human) (UniProt O95239)
T1 sequence: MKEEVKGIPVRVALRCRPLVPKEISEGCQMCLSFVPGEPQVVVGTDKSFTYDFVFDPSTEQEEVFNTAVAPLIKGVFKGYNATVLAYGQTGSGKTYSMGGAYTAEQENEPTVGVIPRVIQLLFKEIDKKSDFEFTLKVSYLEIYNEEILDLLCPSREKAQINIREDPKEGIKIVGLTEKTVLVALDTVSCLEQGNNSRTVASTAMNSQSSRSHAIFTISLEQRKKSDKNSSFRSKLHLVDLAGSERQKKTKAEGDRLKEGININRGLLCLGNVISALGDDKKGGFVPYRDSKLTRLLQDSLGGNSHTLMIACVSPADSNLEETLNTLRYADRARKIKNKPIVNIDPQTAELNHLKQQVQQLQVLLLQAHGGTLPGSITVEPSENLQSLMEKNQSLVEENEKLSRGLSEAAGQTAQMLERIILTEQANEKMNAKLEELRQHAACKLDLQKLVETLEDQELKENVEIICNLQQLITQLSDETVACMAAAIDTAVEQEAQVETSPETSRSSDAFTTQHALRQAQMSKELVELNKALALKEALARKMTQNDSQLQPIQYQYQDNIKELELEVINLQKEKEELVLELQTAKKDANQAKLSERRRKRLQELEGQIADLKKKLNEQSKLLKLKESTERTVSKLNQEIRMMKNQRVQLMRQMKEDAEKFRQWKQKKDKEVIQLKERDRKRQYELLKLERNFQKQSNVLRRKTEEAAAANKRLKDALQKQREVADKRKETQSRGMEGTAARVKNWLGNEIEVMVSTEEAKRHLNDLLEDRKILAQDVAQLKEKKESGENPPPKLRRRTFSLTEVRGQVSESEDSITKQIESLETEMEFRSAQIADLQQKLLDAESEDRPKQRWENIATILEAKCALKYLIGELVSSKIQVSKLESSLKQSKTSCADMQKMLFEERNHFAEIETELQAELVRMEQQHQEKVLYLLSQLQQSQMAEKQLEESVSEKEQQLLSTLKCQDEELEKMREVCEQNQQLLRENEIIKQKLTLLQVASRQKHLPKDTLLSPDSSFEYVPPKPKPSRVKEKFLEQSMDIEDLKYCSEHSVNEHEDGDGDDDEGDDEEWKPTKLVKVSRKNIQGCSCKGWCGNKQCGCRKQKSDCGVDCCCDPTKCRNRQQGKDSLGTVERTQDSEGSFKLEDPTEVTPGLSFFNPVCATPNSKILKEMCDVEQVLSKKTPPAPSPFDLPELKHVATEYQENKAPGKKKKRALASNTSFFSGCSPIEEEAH
Test: pull-down; HA–KIF4A WT from U2OS held on anti-HA affinity gel, in vitro SUMOylated on the beads (or SUMO2 omitted), washed, incubated with 1 µg recombinant GST–STMN1 WT for 2 h at 4°C, washed in 50 mM Tris-HCl pH 7.5, 5 mM MgCl2, 150 mM NaCl, 0.5% Triton X-100, eluted with HA-peptide; immunoblot against STMN1 and the HA tag; both purified

- binding: binds
B1: recombinant GST–STMN1 WT (protein, UniProt P16949 1-149)
chain: MASSDIQVKELEKRASGQAFELILSPRSKESVPEFPLSPPKKKDLSLEEIQKKLEAAEERRKSHEAEVLKQLAEKREHEKEVLQKAIEENNNFSKMAEEKLTHKMEANKENREAQMAAKLERLREKDKHIEEVRKNKESKDPADETEAD
